Experimental findings from paper doi:10.1101/2022.01.28.478199 are described below.

The chains behind the UniProt entries cited, without tags or fusion partners. Where a name states a change or a piece, a line headed by the entry shows the natural chain unless it says otherwise. Residues count along the entry.
UniProt P33416: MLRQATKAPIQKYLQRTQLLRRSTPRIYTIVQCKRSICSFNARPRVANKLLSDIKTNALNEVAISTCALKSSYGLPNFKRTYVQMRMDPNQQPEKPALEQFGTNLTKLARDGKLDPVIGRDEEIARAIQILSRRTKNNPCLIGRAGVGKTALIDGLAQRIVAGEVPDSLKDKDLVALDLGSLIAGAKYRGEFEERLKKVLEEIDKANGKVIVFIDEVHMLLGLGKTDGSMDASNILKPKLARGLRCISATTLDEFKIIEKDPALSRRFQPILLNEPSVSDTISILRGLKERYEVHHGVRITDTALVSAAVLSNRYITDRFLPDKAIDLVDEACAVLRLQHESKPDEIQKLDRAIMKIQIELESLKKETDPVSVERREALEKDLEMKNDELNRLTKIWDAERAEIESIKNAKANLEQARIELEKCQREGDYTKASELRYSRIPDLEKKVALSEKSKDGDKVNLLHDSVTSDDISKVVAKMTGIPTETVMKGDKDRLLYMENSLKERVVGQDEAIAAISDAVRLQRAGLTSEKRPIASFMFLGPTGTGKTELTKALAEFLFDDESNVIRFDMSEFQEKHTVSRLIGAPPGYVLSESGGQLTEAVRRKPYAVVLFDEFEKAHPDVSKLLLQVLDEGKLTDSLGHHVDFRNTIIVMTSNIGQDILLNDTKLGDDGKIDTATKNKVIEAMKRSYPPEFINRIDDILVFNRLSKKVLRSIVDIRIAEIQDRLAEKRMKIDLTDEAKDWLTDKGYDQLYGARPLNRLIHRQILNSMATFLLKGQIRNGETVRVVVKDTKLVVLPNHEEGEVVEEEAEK
UniProt P0CS90, residues 24-654: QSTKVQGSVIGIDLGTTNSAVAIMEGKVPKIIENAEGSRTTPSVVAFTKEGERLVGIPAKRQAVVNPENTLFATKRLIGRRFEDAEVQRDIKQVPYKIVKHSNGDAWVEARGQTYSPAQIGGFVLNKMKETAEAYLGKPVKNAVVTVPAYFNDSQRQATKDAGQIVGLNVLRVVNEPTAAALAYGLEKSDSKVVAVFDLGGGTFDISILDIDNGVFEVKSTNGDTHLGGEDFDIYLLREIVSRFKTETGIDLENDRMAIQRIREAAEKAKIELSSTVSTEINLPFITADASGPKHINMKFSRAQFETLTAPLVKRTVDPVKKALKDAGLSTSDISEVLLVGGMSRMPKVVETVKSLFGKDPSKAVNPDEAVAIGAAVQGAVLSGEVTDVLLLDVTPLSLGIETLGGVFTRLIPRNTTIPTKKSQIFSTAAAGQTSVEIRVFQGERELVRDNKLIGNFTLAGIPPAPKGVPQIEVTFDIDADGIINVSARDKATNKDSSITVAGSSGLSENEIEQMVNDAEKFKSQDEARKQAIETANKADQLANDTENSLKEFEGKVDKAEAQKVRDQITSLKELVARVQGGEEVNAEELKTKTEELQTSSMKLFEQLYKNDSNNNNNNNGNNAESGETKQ

The test concerns the target Hsp78TR-6xHis (Hsp78 E216Q/E614Q Walker B mutant with a C-terminal 6x polyhistidine-tag) (S. cerevisiae) (UniProt P33416). The test can be described thus: pull-down.

These are yes or no findings as the source states them, for the method shown. In cells and extracts the contact can be indirect. Binding can be weak; no strength is given.

With “Ssc1 (mtHsp70, main Hsp70 chaperone of the mitochondrial matrix) (from UniProt P0CS90 24-654)”, the binding result is “binds”.
